These results are taken from article doi:10.1101/2023.03.27.534359.

Chains of the proteins cited; added tags and fusions are not shown. Lines headed by an entry give the natural chain unless they say otherwise; changes in a name come on top.
UniProt P16378: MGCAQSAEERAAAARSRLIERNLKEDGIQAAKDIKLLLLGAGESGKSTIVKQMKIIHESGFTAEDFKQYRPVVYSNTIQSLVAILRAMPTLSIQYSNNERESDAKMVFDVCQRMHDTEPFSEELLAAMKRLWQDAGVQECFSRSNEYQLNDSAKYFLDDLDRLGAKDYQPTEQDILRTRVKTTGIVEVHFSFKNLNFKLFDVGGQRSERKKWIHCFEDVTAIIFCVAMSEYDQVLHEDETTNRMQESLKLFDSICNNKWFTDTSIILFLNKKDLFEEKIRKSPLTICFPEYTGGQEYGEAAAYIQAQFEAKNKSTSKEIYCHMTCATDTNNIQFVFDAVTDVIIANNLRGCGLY
UniProt P09471: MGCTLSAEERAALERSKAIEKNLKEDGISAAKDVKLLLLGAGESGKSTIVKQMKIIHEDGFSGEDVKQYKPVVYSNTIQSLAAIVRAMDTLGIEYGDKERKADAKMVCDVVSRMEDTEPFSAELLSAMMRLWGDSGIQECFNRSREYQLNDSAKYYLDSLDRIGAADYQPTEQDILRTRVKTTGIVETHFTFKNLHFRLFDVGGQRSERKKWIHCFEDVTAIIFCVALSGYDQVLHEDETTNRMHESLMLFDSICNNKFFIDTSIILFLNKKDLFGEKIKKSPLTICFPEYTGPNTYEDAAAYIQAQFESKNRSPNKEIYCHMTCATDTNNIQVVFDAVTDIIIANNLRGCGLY

This assay has as its target T1, Drosophila GFP-Ric8 (Drosophila) (UniProt Q9W358).
T1 sequence: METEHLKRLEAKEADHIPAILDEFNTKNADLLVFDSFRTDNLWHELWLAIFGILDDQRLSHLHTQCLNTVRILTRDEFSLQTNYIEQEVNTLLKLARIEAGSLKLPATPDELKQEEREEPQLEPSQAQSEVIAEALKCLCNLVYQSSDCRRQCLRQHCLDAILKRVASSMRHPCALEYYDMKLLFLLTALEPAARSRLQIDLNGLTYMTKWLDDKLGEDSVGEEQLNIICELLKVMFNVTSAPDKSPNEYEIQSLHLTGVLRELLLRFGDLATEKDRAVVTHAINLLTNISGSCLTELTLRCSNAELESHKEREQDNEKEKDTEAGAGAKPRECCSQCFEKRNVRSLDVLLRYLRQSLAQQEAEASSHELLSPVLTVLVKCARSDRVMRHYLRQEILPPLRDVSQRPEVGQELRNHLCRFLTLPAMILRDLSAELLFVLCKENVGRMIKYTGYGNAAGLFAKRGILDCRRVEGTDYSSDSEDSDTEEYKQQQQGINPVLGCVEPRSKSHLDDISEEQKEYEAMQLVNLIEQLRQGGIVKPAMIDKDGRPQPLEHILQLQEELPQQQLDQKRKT
Kind of assay: co-IP.

No constants are given. Whether binding was seen depends on the method and setting. Binding seen in cells or lysates may run through a third protein. Some entries that bind do so weakly or less than the wild type. Tags and fused reporters may be left off the sequences shown.

With “Drosophila Gαo G203R (from UniProt P16378 1-354)”, the binding result is reported as “binds”.

With “non-tagged Gαo G203R (from UniProt P09471 1-354)”, the binding result is “binds”.
